Measured values as given in patent US20110065706A1, “Therapeutic Agents 812” (AstraZeneca AB, priority 2009, published 2011).

Sequences of proteins named here, by UniProt entry; tags and fusion partners are left off.
UniProt Q8TDV5, whole entry: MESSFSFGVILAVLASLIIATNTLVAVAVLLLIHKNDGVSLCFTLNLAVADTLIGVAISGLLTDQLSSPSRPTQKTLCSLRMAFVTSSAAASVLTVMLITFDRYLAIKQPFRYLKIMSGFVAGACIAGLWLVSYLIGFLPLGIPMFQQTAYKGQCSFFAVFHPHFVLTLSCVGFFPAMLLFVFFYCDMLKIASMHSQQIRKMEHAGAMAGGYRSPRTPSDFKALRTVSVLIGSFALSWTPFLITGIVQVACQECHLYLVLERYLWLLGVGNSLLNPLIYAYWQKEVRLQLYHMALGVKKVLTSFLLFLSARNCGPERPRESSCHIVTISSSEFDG

Target: human GPR119 (Homo sapiens, UniProt Q8TDV5)
Test: Cyclic AMP (HTRF cAMP) assay for human GPR119, Method A
Assay type: cell-based

EC50 (HEK 293s cells over-expressing human GPR119, midpoint of dose response curve, selected examples): 0.103 µM
% activation @ 30 μM (HEK 293s cells over-expressing human GPR119, percent effect at top concentration 30 μM relative to maximum (50 μM Oleoylethanolamide) and minimum (1% DMSO) controls): 88%
Structure (SMILES): CC(C)(C)OC(=O)N1CCN(c2ncc(OCc3ccc(-n4cncn4)nc3)cn2)CC1

The structures given here were assigned with low confidence; some may be wrong.
